# According to publication PMC5608510:
# By UniProt entry, the sequences of proteins in these tests, tags left out.
# UniProt Q9BQA1: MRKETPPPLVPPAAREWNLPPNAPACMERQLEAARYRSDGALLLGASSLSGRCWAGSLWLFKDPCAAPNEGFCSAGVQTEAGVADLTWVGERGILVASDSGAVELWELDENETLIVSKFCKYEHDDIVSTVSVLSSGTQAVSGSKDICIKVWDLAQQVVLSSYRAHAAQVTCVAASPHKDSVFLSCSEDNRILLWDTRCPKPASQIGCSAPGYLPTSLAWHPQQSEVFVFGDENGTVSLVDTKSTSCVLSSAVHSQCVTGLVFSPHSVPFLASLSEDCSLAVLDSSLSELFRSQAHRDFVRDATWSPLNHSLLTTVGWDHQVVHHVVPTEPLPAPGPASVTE
# UniProt P31947: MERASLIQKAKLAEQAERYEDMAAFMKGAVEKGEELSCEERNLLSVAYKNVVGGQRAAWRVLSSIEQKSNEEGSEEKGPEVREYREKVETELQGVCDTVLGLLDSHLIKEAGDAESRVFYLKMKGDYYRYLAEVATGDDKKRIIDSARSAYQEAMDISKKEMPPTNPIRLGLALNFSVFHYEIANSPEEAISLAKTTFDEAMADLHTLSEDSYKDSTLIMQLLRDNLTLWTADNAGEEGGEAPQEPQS
# Results are given in words; binding and its absence hold for the method and conditions named. In cells and extracts the contact can be indirect. These calls come from enrichment with a bait or labelling near it, and not all partners need be listed.
# Target: WDR77 (human (endogenous in LNCaP and VCaP)) (UniProt Q9BQA1)
# Assay: affinity purification with mass spectrometry; nuclear extracts of LNCaP cells after 16 hr of R1881 (5 nM) or vehicle, immunoprecipitated with p53 or WDR77 antibodies, gel bands digested with trypsin, LC-MS
substance,measurement,value
14-3-3 sigma (from UniProt P31947 1-248),binding,binds
